# Measured values from the supplement of paper PMC5407854, “Inhibitor of ppGalNAc-T3-mediated O-glycosylation blocks cancer cell invasiveness and lowers FGF23 levels” (eLife, 2017).
# The full ranking holds about 1,700 compounds; the median of “T3 sensor activation Q score (MG/GFP ratio z-score vs DMSO controls)” is about 0.25, and the highest 2% start at about 1.9. The list shows a part of the results.
# Tested on: ppGalNAc-T3 sensor
# Assay: T3 sensor activation Q score (MG/GFP ratio z-score vs DMSO controls) (SD units); higher = more sensor activation (inhibition of ppGalNAc-T3 glycosylation)
# Conditions: HEK293 sensor cells; 10 µM; 6 h
# Protocol: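 Cells were treated with compound at 10 uM for 6 h, then MG/GFP ratio was read by flow cytometry (10,000 cells per well, duplicate wells). Q = (R - R_neg)/SD_neg relative to DMSO vehicle controls; the signal rises when the glycosyltransferase is inhibited.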
row,Structure (SMILES),T3 sensor activation Q score
1,CC1(C)CC[C@]2(C(=O)n3ccnc3)CC[C@]3(C)[C@H](C(=O)C=C4[C@@]5(C)C=C(C#N)C(=O)C(C)(C)[C@@H]5CC[C@]43C)[C@@H]2C1,0.2
2,C=C(C)c1nc(Oc2ccccc2)nc(Oc2ccccc2)n1,1.3
3,N#Cc1cnn2ccn(C3OC(CO)C(O)C3O)c12 (stereo not given),0.35
4,O=c1cc/c(=N\Nc2ccccc2)c(=O)/c1=N/Nc1ccccc1,0.65
5,Cc1cc(N)c2cc(NC(=O)C=Cc3ccccc3Cl)ccc2n1,-0.2
6,CN1C2CCC1CC(OC(c1ccccc1)c1ccccc1)C2 (stereo not given),0.15
7,CC(=O)c1c(O)c(C)c(O)c2c1OC1=CC(=O)/C(=C(/C)N)C(=O)C12C (stereo not given),0.1
8,CN(C)C=Nc1ccc(Cl)c(Cl)c1,0
9,COc1cc(S(N)(=O)=O)c(OC)cc1N,1.5
10,Cn1nc(NC(=O)C(F)(F)F)c2ncc(-c3ccc(Cl)cc3)nc21,0.7
11,CC(C1=C(CCN(C)C)Cc2ccccc21)c1ccccn1 (stereo not given),-0.2
12,Cc1cc(N(C)C)ccc1N=Nc1ccc2ncccc2c1,-0.55
13,Cc1c(C#N)c2n(c1C)CCCC(=O)N2,1.25
14,OC(COc1ccccc1)CN1CCN(c2ccccc2)CC1 (stereo not given),-0.25
15,CC(=O)Nc1cc(NC(C)=O)ncn1,0.6
16,NC(=S)N/N=C\c1cc(-c2cccc(N)c2)ccn1,-0.4
17,O=c1nccc(SCc2ccc(Cl)cc2Cl)[nH]1,0.15
18,CC(=O)OC1COC(OC(C)=O)CO1 (stereo not given),0.65
19,Cc1cc(C)c(C#N)c(Sc2nc(C)c([N+](=O)[O-])c(C)c2C#N)n1,-0.15
20,C1=Cc2ccccc2Nc2ccccc21,-0.35
21,CC(=O)NCC(O)c1ccc([N+](=O)[O-])cc1 (stereo not given),1.75
22,NNC(=O)Cc1cc(=O)[nH][nH]1,0.55

row,Structure (SMILES),T3 sensor activation Q score
1,O=C(O)c1cncc(Br)c1,-1.25
2,O=C(NCc1ccco1)Nc1cccc([N+](=O)[O-])c1,0.05
3,Nc1nc(Cl)nc2c1ncn2[C@H]1C[C@H](O)[C@@H](CO)O1,0.7
4,Oc1ccc2ccc3[nH]cnc3c2c1,-1.25
5,NC(=Nc1nc(-c2ccccn2)cc2ccccc12)c1ccccn1,-0.35
6,Cn1c(=O)c2c(nc(Oc3ccccc3)n2C)n(C)c1=O,0.7
7,COc1cccc2c1C(=O)c1c(O)c3c(c(O)c1C2=O)C[C@@](O)(C(=O)CO)C[C@@H]3O[C@H]1C[C@H](N)[C@H](O)[C@H](C)O1,-1.1
8,C=CCNc1ncnc2sc(SC)nc12,1.35
9,O=c1[nH]c(=S)[nH]cc1Oc1ccc(Cl)cc1Cl,0.05
10,CCN1CCCC(Sc2nc3c([nH]2)c(=S)n(C)c(=O)n3C)C1 (stereo not given),1.1
11,OC[C@H]1O[C@@H](n2cnc3c2NC=NC[C@H]3O)C[C@@H]1O,1.3
12,O=C(O)/C=C\C(=O)Nc1nccs1,-0.3
13,CCOC(=O)c1c(C)nc(C)c(C(=O)OCC)c1-c1ccc(OC)cc1,0.3
14,CSc1ncc2ncn(C3OC(CO)C(O)C3O)c2n1 (stereo not given),1.45
15,Cc1cc(O)c(-c2cc(O)c(C)cc2O)cc1O,0.2
16,C(=C\c1ccncc1)/c1ccncc1,0.45
17,Clc1ccc(Nc2nnc(-c3ccc4c(c3)OCO4)o2)cc1,0.55
18,CCOC(=O)CC(=O)NC(C)(C)CCCCC(C)(C)NC(=O)CC(=O)OCC,-0.2
19,CCC(CNc1cc(OC)cc2cccnc12)NC1CCCCC1 (stereo not given),1.4
20,NC(N)=NC(N)=Nc1ccc(O)cc1,-0.4
21,Cn1c2c(c(=O)n(C)c1=O)NC1(N2)C(=O)Nc2ccccc21 (stereo not given),-1.7
22,CC(=O)Nc1nc(C)c(CCC2OCCO2)c(=O)[nH]1,0.75

row,Structure (SMILES),T3 sensor activation Q score
1,CC(=O)NCC1(O)CCCC(C)C1 (stereo not given),0.8
2,C=CCc1ccccc1OCC(=O)O,-1.5
3,CSc1ccc2c(c1)C(N1CCN(C)CC1)Cc1ccccc1S2 (stereo not given),-1.65
4,Cc1nnc2nc(-c3ccccc3)nc(-c3ccccc3)n12,-1.75
5,CC(=O)n1cc(C2CC(=O)OC3=C2CC(=O)C(C)(C)C3)c2ccccc21 (stereo not given),-0.35
6,O/N=C(/c1ccccc1)c1ccc2c3c(cccc13)CC2,1.1
7,CCOCc1cc(=O)[nH]c(SC)n1,-0.7
8,CCOC(=O)/C(C#N)=C/c1cccc(C)c1,-0.5
9,O=S1(=O)CCC(N(N=Cc2ccco2)c2ccccc2)C1 (stereo not given),0.25
10,O=C(Cn1nnc(N2CCCCC2)n1)N/N=C/c1ccccc1O,0.95
11,Cn1c(=O)c2c(nc(N3CCCCC3)n2C)n(C)c1=O,-0.65
12,Nc1nc(N)c2c(ccc3nccc32)[nH]1,-0.45
13,Cc1c2cc[n+](CCN3CCCCC3)cc2c(C)c2c1[nH]c1ccc(O)cc12,0.45
14,CC(C)(C)CC(C)(C)n1nnnc1N,1
15,Oc1cc(-n2cccn2)c(O)cc1-n1cccn1,0.15
16,O=C(CCCCCCC(=O)Nc1ccccc1)NO,0.85
17,Cn1nc(N)c2ncc(C(Cl)(Cl)Cl)nc21,-1.6
18,COc1ccc2nccc(/C=C/c3ccnc4ccc(OC)cc34)c2c1,-1.05
19,O=C(NC(=S)Nc1cccc(O)c1)c1ccco1,-0.4
20,O=[N+]([O-])/C=C/c1cc2ccccc2[nH]1,-0.75
21,O=c1cc2c(=O)oc3cc(O)c(O)oc3c2c(O)c1O,1.6

# Taken from above:
# Value for `CSc1ccc2c(c1)C(N1CCN(C)CC1)Cc1ccccc1S2` (stereo not given) under T3 sensor activation Q score: -1.65
# Value for `Cc1c2cc[n+](CCN3CCCCC3)cc2c(C)c2c1[nH]c1ccc(O)cc12` under T3 sensor activation Q score: 0.45
# Value for `O=C(Cn1nnc(N2CCCCC2)n1)N/N=C/c1ccccc1O` under T3 sensor activation Q score: 0.95
